{
  "sequences": {"note": "By UniProt entry, the sequences of proteins in these tests, tags left out.", "CALR, P27797, UniProt P27797, whole entry": "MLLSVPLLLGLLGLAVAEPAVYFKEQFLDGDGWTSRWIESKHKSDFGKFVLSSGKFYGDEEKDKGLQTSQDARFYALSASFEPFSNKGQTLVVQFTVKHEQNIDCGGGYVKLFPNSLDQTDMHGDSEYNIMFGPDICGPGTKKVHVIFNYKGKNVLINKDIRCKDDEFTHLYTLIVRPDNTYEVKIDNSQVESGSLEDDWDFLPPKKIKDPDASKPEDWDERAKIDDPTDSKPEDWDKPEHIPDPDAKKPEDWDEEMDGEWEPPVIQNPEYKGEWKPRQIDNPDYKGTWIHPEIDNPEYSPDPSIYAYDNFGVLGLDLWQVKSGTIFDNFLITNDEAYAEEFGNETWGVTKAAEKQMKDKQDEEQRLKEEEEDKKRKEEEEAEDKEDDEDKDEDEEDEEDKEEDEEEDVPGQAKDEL"},
  "source": "the supplement of paper PMC10032668",
  "assay_in_all_cases": "PRISMA enrichment of interactor (LFQ) in peptide spot vs all other peptide spots (log2 fold change); higher = stronger / more specific binding of the interactor to the peptide",
  "key": {"TRAF7, Q6Q0C0": {"target": "TRAF7, Q6Q0C0", "description": "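PRISMA: 221 full-length sORF-encoded peptides (3-15 aa), plus SOS1/GLUT1 control peptides, were spot-synthesized on cellulose membranes in triplicate. Membranes were incubated with HEK293T lysate, and bound proteins were identified by LC-MS/MS with LFQ. Enrichment is the log2 fold change versus all other peptide spots; only significant interactors are listed (cutoff c=6, x0=2.8).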"}, "AAMP, Q13685": {"target": "AAMP, Q13685", "description": "(§1)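 PRISMA: 15-aa overlapping tiles (offset 8 aa) of 60 microproteins, plus SOS1/GLUT1 control peptides, were spot-synthesized on cellulose membranes in triplicate. Membranes were incubated with benzonase-treated HEK293T lysate, and bound proteins were identified by LC-MS/MS with LFQ. Enrichment is the log2 fold change of each protein in one spot versus all other spots. Only interactors passing the significance cutoff are listed.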"}, "ASCC3, Q8N3C0": {"target": "ASCC3, Q8N3C0", "description": "as §1"}, "ATP5F1D, P30049": {"target": "ATP5F1D, P30049", "description": "as §1"}, "CALR, P27797": {"target": "CALR, P27797", "description": "as §1"}, "CTNNA1, P35221": {"target": "CTNNA1, P35221", "description": "as §1"}, "CTNNBL1, Q8WYA6": {"target": "CTNNBL1, Q8WYA6", "description": "as §1"}, "DAD1, P61803": {"target": "DAD1, P61803", "description": "as §1"}, "INTS2, Q9H0H0": {"target": "INTS2, Q9H0H0", "description": "as §1"}, "IQCB1, Q15051": {"target": "IQCB1, Q15051", "description": "as §1"}, "MDH2, P40926": {"target": "MDH2, P40926", "description": "as §1"}, "MRPL18, Q9H0U6": {"target": "MRPL18, Q9H0U6", "description": "as §1"}, "SLC27A4, Q6P1M0": {"target": "SLC27A4, Q6P1M0", "description": "as §1"}, "TTC27, Q6P3X3": {"target": "TTC27, Q6P3X3", "description": "as §1"}, "USP9X, Q93008": {"target": "USP9X, Q93008", "description": "as §1"}, "A2M, P01023": {"target": "A2M, P01023", "description": "as §1"}, "ACLY, P53396": {"target": "ACLY, P53396", "description": "as §1"}, "ARHGDIA, P52565": {"target": "ARHGDIA, P52565", "description": "as §1"}, "ARIH1, Q9Y4X5": {"target": "ARIH1, Q9Y4X5", "description": "as §1"}, "CDC45, O75419": {"target": "CDC45, O75419", "description": "as §1"}, "CKAP2L, Q8IYA6": {"target": "CKAP2L, Q8IYA6", "description": "as §1"}, "CLASRP, Q8N2M8": {"target": "CLASRP, Q8N2M8", "description": "as §1"}, "CREBBP, Q92793": {"target": "CREBBP, Q92793", "description": "as §1"}, "CWC25, Q9NXE8": {"target": "CWC25, Q9NXE8", "description": "as §1"}, "DBR1, Q9UK59": {"target": "DBR1, Q9UK59", "description": "as §1"}, "ECHS1, P30084": {"target": "ECHS1, P30084", "description": "as §1"}, "EIF1, P41567": {"target": "EIF1, P41567", "description": "as §1"}, "FGA, P02671": {"target": "FGA, P02671", "description": "as §1"}, "FRG1, Q14331": {"target": "FRG1, Q14331", "description": "as §1"}, "GPN1, Q9HCN4": {"target": "GPN1, Q9HCN4", "description": "as §1"}, "HNRNPAB, Q99729": {"target": "HNRNPAB, Q99729", "description": "as §1"}, "NDUFB11, Q9NX14": {"target": "NDUFB11, Q9NX14", "description": "as §1"}, "NOL9, Q5SY16": {"target": "NOL9, Q5SY16", "description": "as §1"}, "OSBPL3, Q9H4L5": {"target": "OSBPL3, Q9H4L5", "description": "as §1"}, "PGAM5, Q96HS1": {"target": "PGAM5, Q96HS1", "description": "as §1"}, "PTCD3, Q96EY7": {"target": "PTCD3, Q96EY7", "description": "as §1"}, "RBM34, P42696": {"target": "RBM34, P42696", "description": "as §1"}, "RFC1, P35251": {"target": "RFC1, P35251", "description": "as §1"}, "SRSF10, O75494": {"target": "SRSF10, O75494", "description": "as §1"}, "[1]": {"substrate": "SSB, P05455", "description": "as §1"}, "TARS, P26639": {"target": "TARS, P26639", "description": "as §1"}, "TFAM, Q00059": {"target": "TFAM, Q00059", "description": "as §1"}, "TMED1, Q13445": {"target": "TMED1, Q13445", "description": "as §1"}, "UBAC2, Q8NBM4": {"target": "UBAC2, Q8NBM4", "description": "as §1"}, "VIRMA, Q69YN4": {"target": "VIRMA, Q69YN4", "description": "as §1"}, "XRCC5, P13010": {"target": "XRCC5, P13010", "description": "as §1"}},
  "note": "The list shows a part of the results. Only hits are listed; about a third recur on repeated control peptides.",
  "data": [
    {"binder": "MCGTFIAE", "note": "[PDGFRA]", "values": [
      {"measurement": "PRISMA enrichment of interactor (log2)", "setting": "TRAF7, Q6Q0C0", "result": 8.22}
    ]},
    {"binder": "ILTSSRAFLLSSARK", "note": "[PALLD]", "values": [
      {"measurement": "PRISMA enrichment of interactor (log2)", "setting": "AAMP, Q13685", "result": 4.57},
      {"measurement": "PRISMA enrichment of interactor (log2)", "setting": "ASCC3, Q8N3C0", "result": 6.02},
      {"measurement": "PRISMA enrichment of interactor (log2)", "setting": "ATP5F1D, P30049", "result": 5.18},
      {"measurement": "PRISMA enrichment of interactor (log2)", "setting": "CALR, P27797", "result": 6.12},
      {"measurement": "PRISMA enrichment of interactor (log2)", "setting": "CTNNA1, P35221", "result": 4.43},
      {"measurement": "PRISMA enrichment of interactor (log2)", "setting": "CTNNBL1, Q8WYA6", "result": 6.29},
      {"measurement": "PRISMA enrichment of interactor (log2)", "setting": "DAD1, P61803", "result": 10.2},
      {"measurement": "PRISMA enrichment of interactor (log2)", "setting": "INTS2, Q9H0H0", "result": 4.86},
      {"measurement": "PRISMA enrichment of interactor (log2)", "setting": "IQCB1, Q15051", "result": 4.07},
      {"measurement": "PRISMA enrichment of interactor (log2)", "setting": "MDH2, P40926", "result": 5.27},
      {"measurement": "PRISMA enrichment of interactor (log2)", "setting": "MRPL18, Q9H0U6", "result": 4.69},
      {"measurement": "PRISMA enrichment of interactor (log2)", "setting": "SLC27A4, Q6P1M0", "result": 5.34},
      {"measurement": "PRISMA enrichment of interactor (log2)", "setting": "TTC27, Q6P3X3", "result": 4.58},
      {"measurement": "PRISMA enrichment of interactor (log2)", "setting": "USP9X, Q93008", "result": 6.9}
    ]},
    {"binder": "FPVLTVTQGTTCEMK", "note": "[LINC00881]", "values": [
      {"measurement": "PRISMA enrichment of interactor (log2)", "setting": "A2M, P01023", "result": 4.15},
      {"measurement": "PRISMA enrichment of interactor (log2)", "setting": "ACLY, P53396", "result": 4.74},
      {"measurement": "PRISMA enrichment of interactor (log2)", "setting": "ARHGDIA, P52565", "result": 4.02},
      {"measurement": "PRISMA enrichment of interactor (log2)", "setting": "ARIH1, Q9Y4X5", "result": 3.87},
      {"measurement": "PRISMA enrichment of interactor (log2)", "setting": "CDC45, O75419", "result": 3.89},
      {"measurement": "PRISMA enrichment of interactor (log2)", "setting": "CKAP2L, Q8IYA6", "result": 4.38},
      {"measurement": "PRISMA enrichment of interactor (log2)", "setting": "CLASRP, Q8N2M8", "result": 4.52},
      {"measurement": "PRISMA enrichment of interactor (log2)", "setting": "CREBBP, Q92793", "result": 3.71},
      {"measurement": "PRISMA enrichment of interactor (log2)", "setting": "CWC25, Q9NXE8", "result": 5.46},
      {"measurement": "PRISMA enrichment of interactor (log2)", "setting": "DBR1, Q9UK59", "result": 5.43},
      {"measurement": "PRISMA enrichment of interactor (log2)", "setting": "ECHS1, P30084", "result": 4.94},
      {"measurement": "PRISMA enrichment of interactor (log2)", "setting": "EIF1, P41567", "result": 6.34},
      {"measurement": "PRISMA enrichment of interactor (log2)", "setting": "FGA, P02671", "result": 4.91},
      {"measurement": "PRISMA enrichment of interactor (log2)", "setting": "FRG1, Q14331", "result": 4.24},
      {"measurement": "PRISMA enrichment of interactor (log2)", "setting": "GPN1, Q9HCN4", "result": 6.58},
      {"measurement": "PRISMA enrichment of interactor (log2)", "setting": "HNRNPAB, Q99729", "result": 4.81},
      {"measurement": "PRISMA enrichment of interactor (log2)", "setting": "NDUFB11, Q9NX14", "result": 5.47},
      {"measurement": "PRISMA enrichment of interactor (log2)", "setting": "NOL9, Q5SY16", "result": 5.36},
      {"measurement": "PRISMA enrichment of interactor (log2)", "setting": "OSBPL3, Q9H4L5", "result": 3.58},
      {"measurement": "PRISMA enrichment of interactor (log2)", "setting": "PGAM5, Q96HS1", "result": 5.11},
      {"measurement": "PRISMA enrichment of interactor (log2)", "setting": "PTCD3, Q96EY7", "result": 5.68},
      {"measurement": "PRISMA enrichment of interactor (log2)", "setting": "RBM34, P42696", "result": 7.35},
      {"measurement": "PRISMA enrichment of interactor (log2)", "setting": "RFC1, P35251", "result": 4.88},
      {"measurement": "PRISMA enrichment of interactor (log2)", "setting": "SRSF10, O75494", "result": 6.1},
      {"measurement": "PRISMA enrichment of interactor (log2)", "setting": "[1]", "result": 7.25},
      {"measurement": "PRISMA enrichment of interactor (log2)", "setting": "TARS, P26639", "result": 5.45},
      {"measurement": "PRISMA enrichment of interactor (log2)", "setting": "TFAM, Q00059", "result": 6.84},
      {"measurement": "PRISMA enrichment of interactor (log2)", "setting": "TMED1, Q13445", "result": 5.12},
      {"measurement": "PRISMA enrichment of interactor (log2)", "setting": "UBAC2, Q8NBM4", "result": 4.78},
      {"measurement": "PRISMA enrichment of interactor (log2)", "setting": "VIRMA, Q69YN4", "result": 4.61},
      {"measurement": "PRISMA enrichment of interactor (log2)", "setting": "XRCC5, P13010", "result": 4.91}
    ]}
  ]
}
